Data: PubChem BioAssay (EPA / NIEHS)
Where “and” joins values, the source holds several entries; their conditions need not be identical. Identical values can stand only once. Inconclusive means that the source gave no clear call. Such entries were picked first, then a sample of the others. A potency beside an inconclusive call is a rough fit, not a confirmed value. Calls of active or inactive are those of the source. Rule for the calls: active = hit-call score of the fitted dose curve at least 0.9, where 1 is the maximum; inconclusive = response in the unintended direction; inactive = score below 0.9.

Amino acid sequences for entries named in this document (tags omitted). A change or cut given only in a name is not applied to a line headed by its entry.
UniProt P21709: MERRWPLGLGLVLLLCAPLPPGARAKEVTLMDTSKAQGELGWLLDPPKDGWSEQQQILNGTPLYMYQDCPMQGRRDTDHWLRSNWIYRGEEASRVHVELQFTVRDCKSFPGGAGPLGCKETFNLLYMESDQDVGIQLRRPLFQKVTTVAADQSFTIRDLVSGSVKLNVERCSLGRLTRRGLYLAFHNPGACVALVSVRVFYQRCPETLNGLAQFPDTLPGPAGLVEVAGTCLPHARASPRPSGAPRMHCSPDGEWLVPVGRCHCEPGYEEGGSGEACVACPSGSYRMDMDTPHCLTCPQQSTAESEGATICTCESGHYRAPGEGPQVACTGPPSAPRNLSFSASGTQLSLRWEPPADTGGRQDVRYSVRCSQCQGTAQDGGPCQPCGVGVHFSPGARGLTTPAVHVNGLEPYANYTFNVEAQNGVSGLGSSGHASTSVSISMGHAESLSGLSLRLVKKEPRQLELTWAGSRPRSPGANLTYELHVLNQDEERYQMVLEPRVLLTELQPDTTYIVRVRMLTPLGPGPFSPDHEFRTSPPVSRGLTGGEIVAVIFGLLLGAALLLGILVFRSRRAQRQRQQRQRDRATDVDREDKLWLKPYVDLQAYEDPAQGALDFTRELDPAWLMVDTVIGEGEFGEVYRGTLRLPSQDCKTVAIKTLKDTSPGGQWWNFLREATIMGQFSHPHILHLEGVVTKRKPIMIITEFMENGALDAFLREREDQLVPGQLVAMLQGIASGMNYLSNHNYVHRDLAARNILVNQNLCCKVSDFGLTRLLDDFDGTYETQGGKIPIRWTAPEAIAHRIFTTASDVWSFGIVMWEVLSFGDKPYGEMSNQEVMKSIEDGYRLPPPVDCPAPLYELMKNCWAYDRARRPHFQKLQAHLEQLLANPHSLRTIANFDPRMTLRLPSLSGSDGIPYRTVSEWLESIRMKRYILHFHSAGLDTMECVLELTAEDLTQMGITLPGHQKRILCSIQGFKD
UniProt O15379: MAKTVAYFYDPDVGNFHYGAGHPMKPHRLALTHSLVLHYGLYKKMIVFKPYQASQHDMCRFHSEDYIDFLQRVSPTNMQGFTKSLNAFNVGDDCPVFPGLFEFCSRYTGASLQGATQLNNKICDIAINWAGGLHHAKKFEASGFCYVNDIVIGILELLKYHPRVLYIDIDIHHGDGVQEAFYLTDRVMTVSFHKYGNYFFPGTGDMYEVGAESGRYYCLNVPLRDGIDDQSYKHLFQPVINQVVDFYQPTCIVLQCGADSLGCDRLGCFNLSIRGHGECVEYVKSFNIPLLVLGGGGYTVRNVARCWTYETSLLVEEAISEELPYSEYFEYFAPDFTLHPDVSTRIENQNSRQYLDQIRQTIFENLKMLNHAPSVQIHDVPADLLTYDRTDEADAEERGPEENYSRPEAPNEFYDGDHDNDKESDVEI

target: human Ephrin type-A Receptor 1 (EphA1), EPHA1 (gene 2041) (UniProt P21709); test: NVS_ENZ_hEphA1: NovaScreen (NVS) Enzymatic Assay for human Ephrin type-A Receptor 1 (EphA1) (AID 2283158);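 note: activity is signal loss versus DMSO meaning EphA1 kinase inhibition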
Summary of the method: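 Chemicals first tested in duplicate at 25 uM against recombinant EphA1 with a fluorescent substrate; those passing threshold went to singleton dose-response topping at 50 uM. Activity read 1 h later as mobility-shift fluorescence, loss of signal relative to DMSO.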

SMILES	AC50	outcome
NNC(N)=S	inconclusive: 25 µM	–
CCCCC(CC)COC(=O)Cl (stereo not given)	–	inactive
CC[N+](CC)(CC)CC	inconclusive: 40 µM and inconclusive: 6.04 µM	–
CC(C)(C)c1cc([N+](=O)[O-])cc(C(C)(C)C)c1O	inconclusive: 7.72 µM	–
CC(C)(C#N)N=NC(C)(C)C#N	–	inactive
Oc1ccc(Cc2ccc(O)cc2)cc1	inconclusive: 1.04 µM	–
CCN(N=O)C(N)=O	inconclusive: 27.5 µM	–
COC(C)(C)CCC[C@H](C)C/C=C/C(C)=C/C(=O)OC(C)C	inconclusive: 0.675 µM	–
c1ccc(-c2cccc(-c3ccccc3)c2)cc1	active: 2.51 µM	–
CCOC(=O)CCN(SN(C)C(=O)Oc1cccc2c1OC(C)(C)C2)C(C)C	active: 4.87 µM	–
OCCCBr	–	inactive
O=S(=O)(c1ccc(Cl)cc1)c1cc(Cl)c(Cl)cc1Cl	–	inactive
CC(C)(C)C(=O)CCl	–	inactive
CC1(C)C(C=C(Cl)Cl)C1C(=O)OC(C#N)c1ccc(F)c(Oc2ccccc2)c1 (stereo not given)	inconclusive: 25 µM	–
CC(C)NC(=O)N1CC(=O)N(c2cc(Cl)cc(Cl)c2)C1=O	inconclusive: 25 µM	–
Clc1ccc(C(c2ccccc2Cl)C(Cl)(Cl)Cl)cc1 (stereo not given)	inconclusive: 10.6 µM	–
O=[N+]([O-])c1cc(C(F)(F)F)c(Cl)c([N+](=O)[O-])c1Nc1ncc(C(F)(F)F)cc1Cl	inconclusive: 0.972 µM	–
CC(C)c1ccc(CO)cc1	inconclusive: 6.62 µM	–
O=c1c2ccccc2c(=O)c2c1cc(Cl)c1[nH]c3c([nH]c12)c(Cl)cc1c(=O)c2ccccc2c(=O)c13	inconclusive: 25 µM	–
CCCCCCCCCC[N+](C)(C)CCCCCCCCCC	active: 19.7 µM	–
ClCc1ccccc1Cl	inconclusive: 0.0432 µM	–
BrCCCCBr	inconclusive: 0.175 µM	–
c1ccc2sc(SNC3CCCCC3)nc2c1	active: 13.9 µM	–
OC[P+](CO)(CO)CO	–	inactive
CCOC(=O)CC(=O)CCl	inconclusive: 25 µM	–

target: Histone deacetylase 3 (Homo sapiens) (UniProt O15379); test: NVS_ENZ_hHDAC3: NovaScreen (NVS) Enzymatic Assay for human Histone Deacetylase 3 (HDAC3) (AID 2283163)
Summary of the method: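 Cell-free enzyme format: loss of fluorescent product after mobility-shift separation, 1 h incubation, recombinant human HDAC3. Single 25 uM duplicate screen first, then concentration series to a 50 uM top for hits; DMSO as baseline.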

SMILES	AC50	outcome
CC[C@H](C)[C@H]1O[C@]2(C=C[C@@H]1C)C[C@@H]1C[C@@H](C/C=C(\C)[C@@H](O[C@H]3C[C@H](OC)[C@@H](O[C@H]4C[C@H](OC)[C@@H](NC)[C@H](C)O4)[C@H](C)O3)[C@@H](C)/C=C/C=C3\CO[C@@H]4[C@H](O)C(C)=C[C@@H](C(=O)O1)[C@]34O)O2	inconclusive: 25 µM	–
CC(C)C(=O)OCC(C)(C)C(OC(=O)C(C)C)C(C)C (stereo not given)	inconclusive: 0.604 µM	–
C=CCC1=C(C)C(OC(=O)C2C(C=C(C)C)C2(C)C)CC1=O (stereo not given)	inconclusive: 0.129 µM	–
Clc1nc(Cl)nc(Nc2ccccc2Cl)n1	–	inactive
CC(=O)[O][Hg][c]1ccccc1	active: 9.74 µM	–
